Square brackets hold non-standard residues; d marks the D form. * marks the point of attachment. Arg(NO2) = N=C(NCCC[C@H](N)C(=O)O)N[N+](=O)[O-]; Cbz = O=C(OCc1ccccc1)*
Assay: general procedure: solution-phase peptide synthesis; azide method (peptide hydrazide, sodium nitrite, HCl); pentafluorophenyl (OPFP)
[1] = late stage modification step, diacetate
[2] = late stage modification step, bis(trifluoroacetate), diacetate or dihydrochloride

With H-Asu-Leu-Arg-Pro-ethylamide the step yield [1] was 88%.
Substance H-D(OMe)LRP-NHEt has a step yield [1] of 87.3%.
With “Glp-His-Trp-Ser-Tyr-Asu-Leu-Arg-Pro-ethylamide-dihydrochloride” the step yield (late stage modification step, dihydrochloride) was 98.7%.
With “Glp-His-Trp-Ser-Tyr-Asu-Leu-Arg-Pro-ethylamide diacetate” the step yield [1] was 98%.
Work on Cbz-D(OMe)L[Arg(NO2)]P-NHEt yielded a step yield (coupling step, bis(trifluoroacetate), diacetate or dihydrochloride) of 72%.
Substance “Glp-His-Trp-Ser-Tyr-Asp(OMe)-Leu-Arg-Pro-ethyl-amide-bis(trifluoroacetate)” has a step yield (coupling step, bis(trifluoroacetate)) of 41.6%.
Z-Asu-Leu-Arg(NO2)-Pro-ethylamide gave a step yield [2] of 98%.
For Glp-His-Trp-Ser-Dbt-N2H3, the step yield [2] was 70%.
